Test results taken from article PMC5580921, “Homeodomain-like DNA binding proteins control the haploid-to-diploid transition in Dictyostelium”.
Construct, isoform or probe ends are uncertain for at least one entry. At least one verdict was read from the data and is not stated in words by the source. Where a protein sequence is shown, tags need not be part of it.

Biological target: T1, MatA (Dictyostelium discoideum) (UniProt Q54HW9)
T1 sequence (looked up, limits assumed): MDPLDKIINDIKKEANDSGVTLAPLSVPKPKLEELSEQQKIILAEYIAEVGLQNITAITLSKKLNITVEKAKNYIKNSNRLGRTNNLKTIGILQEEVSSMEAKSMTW
Experiment: NMR
Conditions: 80 uM DNA, 20 uM MatA, CSPs grow with DNA length, NMR: 25 mM phosphate pH 6, 50 mM NaCl, 50 uM EDTA, 5% D2O, 25 C (MatB S71A at 1 C), recombinant protein

Sequence	binding result (shortest DNA)	binding result
CGTTTGGTGGCGGGA (double strand) [15-bp DNA]	binds	–
CCGAAACGTTTGGTGGCGGGA (double strand) [21-bp DNA]	–	binds
